Measured values reported in the supplement of paper PMC6445147.
Single values of this data set are uncertain.

B1: human tRNA-Pro; a variant is named by its letters at N, in order (parent)
chain: GGCTCGTTGGTCTAGNGGTATGATTCTCGCTTAGGGTGCGAGAGGTCCCGGGTTCNNATCCCGGACGAGCCC

Key:
[1] = variants of: B1; experiment: tRNA Pol-III promoter activity, log2 (circRNA frequency / plasmid DNA frequency) (log2 ratio); higher = stronger promoter activity; conditions: HEK293T; construct: no Pol-II promoter ((-)CMV library)
[2] = variants of: B1; experiment: tRNA 3' processing efficiency (processed reads / all reads, maximum-likelihood estimate) (fraction); higher = more efficient 3' processing; conditions: HEK293T; construct: no Pol-II promoter ((-)CMV library)
[3] = variants of: B1; experiment: tRNA 5' processing efficiency (processed reads / all reads, maximum-likelihood estimate) (fraction); higher = more efficient 5' processing; conditions: HEK293T; construct: CMV Pol-II promoter ((+)CMV library, decapped)

| Variant | tRNA Pol-III promoter activity (log2) [1] | tRNA 3' processing efficiency [2] | tRNA 5' processing efficiency [3] |
| --- | --- | --- | --- |
| GAA A14G A58T | 0.164 | 0.26 |  |
| GAA A14G A58C | 2.25 | 0.38 |  |
| GAA A14G A58G | -1.21 | 0.25 |  |
| TAA A14C T53A | 4.77 | 0.38 |  |
| GAA A14G C55G | -0.478 | 0.2 | 0.4 |
| GAA A14G T54A | 0.189 | 0.3 | 0.2 |
| GAA A14G T54C | -0.491 | 0.8 | 0.25 |
| CAA A14T T59C | 0.758 | 0.5 |  |
| CAA A14T T59A | 4.53 | 0.67 |  |
| GAA A14T T19A T59C | 6.26 | 0.2 |  |
| GAA A14G A58G T59C | 3.06 | 0.47 |  |
| GAA A14G A58G T59G | 4.25 | 0.28 |  |
| GAA A14G A58G T59A | 6 | 0.31 |  |
| GAA A14T A20T T54A | 2.68 | 0.4 |  |
| GAA A14T T53G T59G | 3.34 | 0.33 |  |
| AAA A14G T53C | 3.7 | 0.38 |  |
| AAA A14G T53A | 2.93 | 0.4 |  |
| CAA A14T A58T | 4.03 | 0.4 |  |
| CAA A14T A58G | 3.94 | 0.29 |  |

| Variant | tRNA Pol-III promoter activity (log2) [1] | tRNA 3' processing efficiency [2] | tRNA 5' processing efficiency [3] |
| --- | --- | --- | --- |
| CAA A14C T59A | 3.71 | 0.25 |  |
| GAA A14G G18T C55G | 2.8 | 0.2 |  |
| GAA A14G G18T C55T | 3.38 | 0.14 |  |
| GAA A14T A20T T59C | 4.44 | 0.33 |  |
| GAA A14T A20T T59G | 3.81 | 0.17 |  |
| GAA A14C G18C | 0.228 | 0.86 |  |
| GAA A14C G18A | 0.798 | 0.3 |  |
| GAA A14G G18A T59G | 4.53 | 0.5 |  |
| GAA A14G G18A T59A | 3.52 | 0.43 |  |
| GAA A14T C55G | -0.834 | 0.2 | 0.14 |
| GAA A14T C55A | -1.2 | 0.2 |  |
| GAA A14T C55T | -1.22 | 0.57 |  |
| CAA A14T A20T T59A | 5.53 | 0.17 |  |
| AAA A14T A20T T59C | 6.25 | 0.2 |  |
| GAA A14T A58G T59C | 4.44 | 0.57 |  |
| GAA A14T A58G T59A | 5.84 | 0.21 |  |
| GAA A14T A58G T59G | 4.32 | 0.35 |  |
| GAA A14G T19A A58T T59A | 5.94 | 0.25 |  |
| GAA A14G T19G T59C | 4.81 | 0.37 |  |

A few values from the list.
Value of GAA A14T C55G under tRNA 3' processing efficiency [2]: 0.2
Value of CAA A14T A58G under tRNA Pol-III promoter activity (log2) [1]: 3.94
Value of AAA A14T A20T T59C under tRNA 3' processing efficiency [2]: 0.2
Value of CAA A14T T59A under tRNA 3' processing efficiency [2]: 0.67

Going on with the list.

| Variant | tRNA Pol-III promoter activity (log2) [1] | tRNA 3' processing efficiency [2] | tRNA 5' processing efficiency [3] |
| --- | --- | --- | --- |
| CAA A14T T19G A58G | 5.2 | 0.56 |  |
| GAA A14T T53A T59G | 4.16 | 0.29 |  |
| GAA A14T T53A T59C | 3.03 | 0.25 |  |
| GAA A14G A20T T59C | 4.62 | 0.5 |  |
| GAA A14T G17A A20G | 2.36 | 0.25 |  |
| GAA A14T T19A A58C | 3.3 | 0.17 |  |
| GAA A14T T19A A58G | 4.59 | 0.33 |  |
| CAA A14G T53G | 5.25 | 0.2 |  |
| GAA A14C T19A A20C T59A | 2.94 | 0.5 |  |
| TAA A14C T53G T59A | 6.25 | 0.4 |  |
| GAA A14G G17T A58G | 5.41 | 0.62 |  |
| GAA A14G G17T A58T | 2.36 | 0.4 |  |
| GAA A14T A20G A58C | 3.17 | 0.56 |  |
| GAA A14G G15A A58T | 1.94 | 0.25 |  |
| AAA A14T G17T | 6.02 | 0.95 |  |
| GAA A14T T19A | -0.631 | 0.33 |  |
| GAA A14G G17A | -0.32 | 0.33 |  |
| GAA A14G G17T | -0.248 | 0.5 |  |
| AAA A14T T59A | 4.03 | 0.4 |  |
